Assay results reported in patent publication US20110038885A1 (priority 2007, published 2011).
Numbered stars: 1 amine (or outer) side, 2 acyl side, 3 side chain; on linkers, the order of the positions; unused ones are H or OH. Bridge positions count the residues as written; N and C are the ends. Square brackets hold non-standard residues; d marks the D form. * marks the point of attachment. Diglycolyl = O=C(COCC(=O)[*:2])[*:1]; X3 = O=C(/C=C/c1ccc(Cl)cc1)*; Isobutyryl = CC(C)C(=O)*; Dab = NCC[C@H](N)C(=O)O; Dap = NC[C@H](N)C(=O)O; Aoc = NCCCCCCCC(=O)O; Ahp = NCCCCCCC(=O)O; Bz = O=C(c1ccccc1)*; Ahx = NCCCCCC(=O)O; βAla = NCCC(=O)O

Experiment: general procedure: Fmoc solid-phase peptide synthesis; Rink Amide MBHA resin (0.58 mmol/g or 0.78 mmol/g); Wang resin for C-terminal acids; DIC/HOBt
Conditions: whole synthesis; for purity (crude or final not stated): scale of the general procedure 0.090 mmol

Substance | purity (crude or final not stated) (analytical HPLC) [%] | other results
H-LDPKQCKWIQC-NH2 (disulfide 6-11; SMILES CC[C@H](C)[C@@H]1NC(=O)[C@H](Cc2c[nH]c3ccccc23)NC(=O)[C@H](CCCCN)NC(=O)[C@@H](NC(=O)[C@H](CCC(N)=O)NC(=O)[C@H](CCCCN)NC(=O)[C@@H]2CCCN2C(=O)[C@H](CC(=O)O)NC(=O)[C@@H](N)CC(C)C)CSSC[C@@H](C(N)=O)NC(=O)[C@H](CCC(N)=O)NC1=O) | 86 | –
Ac-CLDPKQKWIQC-NH2 (disulfide 1-11; SMILES CC[C@H](C)[C@@H]1NC(=O)[C@H](Cc2c[nH]c3ccccc23)NC(=O)[C@H](CCCCN)NC(=O)[C@H](CCC(N)=O)NC(=O)[C@H](CCCCN)NC(=O)[C@@H]2CCCN2C(=O)[C@H](CC(=O)O)NC(=O)[C@H](CC(C)C)NC(=O)[C@@H](NC(C)=O)CSSC[C@@H](C(N)=O)NC(=O)[C@H](CCC(N)=O)NC1=O) | 99 | –
[Ahp]KWIQD-NH2 (lactam N-6; SMILES CC[C@H](C)[C@@H]1NC(=O)[C@H](Cc2c[nH]c3ccccc23)NC(=O)[C@H](CCCCN)NC(=O)CCCCCCNC(=O)C[C@@H](C(N)=O)NC(=O)[C@H](CCC(N)=O)NC1=O) | 93.9 | –
H-[dK][dD]CLDPKQKWIQC-NH2 (disulfide 3-13; SMILES CC[C@H](C)[C@@H]1NC(=O)[C@H](Cc2c[nH]c3ccccc23)NC(=O)[C@H](CCCCN)NC(=O)[C@H](CCC(N)=O)NC(=O)[C@H](CCCCN)NC(=O)[C@@H]2CCCN2C(=O)[C@H](CC(=O)O)NC(=O)[C@H](CC(C)C)NC(=O)[C@@H](NC(=O)[C@@H](CC(=O)O)NC(=O)[C@H](N)CCCCN)CSSC[C@@H](C(N)=O)NC(=O)[C@H](CCC(N)=O)NC1=O) | 94 | –
H-WCIQC-NH2 (disulfide 2-5; SMILES CC[C@H](C)[C@@H]1NC(=O)[C@@H](NC(=O)[C@@H](N)Cc2c[nH]c3ccccc23)CSSC[C@@H](C(N)=O)NC(=O)[C@H](CCC(N)=O)NC1=O) | 92 | –
c(D-Cys-D-Gln-D-Ile-D-Trp-D-Lys-D-Gln-D-Lys-D-Pro-D-Asp-D-Leu-D-Cys)-D-Lys(N/-octanoyl)-OH | 99 | –
H-CPKQKWIQC-NH2 (disulfide 1-9; SMILES CC[C@H](C)[C@@H]1NC(=O)[C@H](Cc2c[nH]c3ccccc23)NC(=O)[C@H](CCCCN)NC(=O)[C@H](CCC(N)=O)NC(=O)[C@H](CCCCN)NC(=O)[C@@H]2CCCN2C(=O)[C@@H](N)CSSC[C@@H](C(N)=O)NC(=O)[C@H](CCC(N)=O)NC1=O) | 93.5 | –
Isobutyryl-KKWIQE-NH2 (lactam 1-6; SMILES CC[C@H](C)[C@@H]1NC(=O)[C@H](Cc2c[nH]c3ccccc23)NC(=O)[C@H](CCCCN)NC(=O)[C@@H](NC(=O)C(C)C)CCCCNC(=O)CC[C@@H](C(N)=O)NC(=O)[C@H](CCC(N)=O)NC1=O) | 96.2 | –
[βAla][dQ][dI][dW][dK][dD]-NH2 (lactam N-6; SMILES CC[C@@H](C)[C@H]1NC(=O)[C@@H](CCC(N)=O)NC(=O)CCNC(=O)C[C@H](C(N)=O)NC(=O)[C@@H](CCCCN)NC(=O)[C@@H](Cc2c[nH]c3ccccc23)NC1=O) | 88 | –
Ac-[Dab]KWIQD-NH2 (lactam 1-6; SMILES CC[C@H](C)[C@@H]1NC(=O)[C@H](Cc2c[nH]c3ccccc23)NC(=O)[C@H](CCCCN)NC(=O)[C@@H](NC(C)=O)CCNC(=O)C[C@@H](C(N)=O)NC(=O)[C@H](CCC(N)=O)NC1=O) | 98.8 | –
H-[dC][dQ][dI][dW][dK][dQ][dK][dP][dD][dL][dC][Ahx]-OH (disulfide 1-11; SMILES CC[C@@H](C)[C@H]1NC(=O)[C@@H](CCC(N)=O)NC(=O)[C@H](N)CSSC[C@H](C(=O)NCCCCCC(=O)O)NC(=O)[C@@H](CC(C)C)NC(=O)[C@@H](CC(=O)O)NC(=O)[C@H]2CCCN2C(=O)[C@@H](CCCCN)NC(=O)[C@@H](CCC(N)=O)NC(=O)[C@@H](CCCCN)NC(=O)[C@@H](Cc2c[nH]c3ccccc23)NC1=O) | 94 | –
X3-CKWIQC-NH2 (disulfide 1-6; SMILES CC[C@H](C)[C@@H]1NC(=O)[C@H](Cc2c[nH]c3ccccc23)NC(=O)[C@H](CCCCN)NC(=O)[C@@H](NC(=O)/C=C/c2ccc(Cl)cc2)CSSC[C@@H](C(N)=O)NC(=O)[C@H](CCC(N)=O)NC1=O) | 96 | –
Ac-LDPKQCKWIQC-NH2 (disulfide 6-11; SMILES CC[C@H](C)[C@@H]1NC(=O)[C@H](Cc2c[nH]c3ccccc23)NC(=O)[C@H](CCCCN)NC(=O)[C@@H](NC(=O)[C@H](CCC(N)=O)NC(=O)[C@H](CCCCN)NC(=O)[C@@H]2CCCN2C(=O)[C@H](CC(=O)O)NC(=O)[C@H](CC(C)C)NC(C)=O)CSSC[C@@H](C(N)=O)NC(=O)[C@H](CCC(N)=O)NC1=O) | 82.8 | –
Ac-DKWIQ[Dab]-NH2 (lactam 1-6; SMILES CC[C@H](C)[C@@H]1NC(=O)[C@H](Cc2c[nH]c3ccccc23)NC(=O)[C@H](CCCCN)NC(=O)[C@@H](NC(C)=O)CC(=O)NCC[C@@H](C(N)=O)NC(=O)[C@H](CCC(N)=O)NC1=O) | 99.9 | –
Ac-[Dab]KWIQE-NH2 (lactam 1-6; SMILES CC[C@H](C)[C@@H]1NC(=O)[C@H](Cc2c[nH]c3ccccc23)NC(=O)[C@H](CCCCN)NC(=O)[C@@H](NC(C)=O)CCNC(=O)CC[C@@H](C(N)=O)NC(=O)[C@H](CCC(N)=O)NC1=O) | 90 | –
Ac-C[dL]DPKQKWIQC-NH2 (disulfide 1-11; SMILES CC[C@H](C)[C@@H]1NC(=O)[C@H](Cc2c[nH]c3ccccc23)NC(=O)[C@H](CCCCN)NC(=O)[C@H](CCC(N)=O)NC(=O)[C@H](CCCCN)NC(=O)[C@@H]2CCCN2C(=O)[C@H](CC(=O)O)NC(=O)[C@@H](CC(C)C)NC(=O)[C@@H](NC(C)=O)CSSC[C@@H](C(N)=O)NC(=O)[C@H](CCC(N)=O)NC1=O) | 85.2 | –
Ac-DKWIQ[Dap]-NH2 (lactam 1-6; SMILES CC[C@H](C)[C@@H]1NC(=O)[C@H](Cc2c[nH]c3ccccc23)NC(=O)[C@H](CCCCN)NC(=O)[C@@H](NC(C)=O)CC(=O)NC[C@@H](C(N)=O)NC(=O)[C@H](CCC(N)=O)NC1=O) | 98.7 | –
Ac-[dC]KWIQC-NH2 (disulfide 1-6; SMILES CC[C@H](C)[C@@H]1NC(=O)[C@H](Cc2c[nH]c3ccccc23)NC(=O)[C@H](CCCCN)NC(=O)[C@H](NC(C)=O)CSSC[C@@H](C(N)=O)NC(=O)[C@H](CCC(N)=O)NC1=O) | 99 | –
KWIQ[Dap]-NH2 (linker N-5 via Diglycolyl; SMILES CC[C@H](C)[C@@H]1NC(=O)[C@H](Cc2c[nH]c3ccccc23)NC(=O)[C@H](CCCCN)NC(=O)COCC(=O)NC[C@@H](C(N)=O)NC(=O)[C@H](CCC(N)=O)NC1=O) | 88.9 | –
Ac-EKWIQK-NH2 (lactam 1-6; SMILES CC[C@H](C)[C@@H]1NC(=O)[C@H](Cc2c[nH]c3ccccc23)NC(=O)[C@H](CCCCN)NC(=O)[C@@H](NC(C)=O)CCC(=O)NCCCC[C@@H](C(N)=O)NC(=O)[C@H](CCC(N)=O)NC1=O) | 97.3 | –
Ac-[dQ]CKWIQC-NH2 (disulfide 2-7; SMILES CC[C@H](C)[C@@H]1NC(=O)[C@H](Cc2c[nH]c3ccccc23)NC(=O)[C@H](CCCCN)NC(=O)[C@@H](NC(=O)[C@@H](CCC(N)=O)NC(C)=O)CSSC[C@@H](C(N)=O)NC(=O)[C@H](CCC(N)=O)NC1=O) | – | final HPLC purity (analytical HPLC, scale 0.090 mmol): 91.3%; isolated mass (scale 0.090 mmol): 31.5 mg; isolated yield (scale 0.090 mmol): yield=37%
Bz-CKWIQC-NH2 (disulfide 1-6; SMILES CC[C@H](C)[C@@H]1NC(=O)[C@H](Cc2c[nH]c3ccccc23)NC(=O)[C@H](CCCCN)NC(=O)[C@@H](NC(=O)c2ccccc2)CSSC[C@@H](C(N)=O)NC(=O)[C@H](CCC(N)=O)NC1=O) | 88.3 | –
H-PCKQKWIQC-NH2 (disulfide 2-9; SMILES CC[C@H](C)[C@@H]1NC(=O)[C@H](Cc2c[nH]c3ccccc23)NC(=O)[C@H](CCCCN)NC(=O)[C@H](CCC(N)=O)NC(=O)[C@H](CCCCN)NC(=O)[C@@H](NC(=O)[C@@H]2CCCN2)CSSC[C@@H](C(N)=O)NC(=O)[C@H](CCC(N)=O)NC1=O) | 97.6 | –
H-[dC][dQ][dI][dW][dK][dQ][dK][dP][dD][dL][dC]D[Aoc]-OH (disulfide 1-11; SMILES CC[C@@H](C)[C@H]1NC(=O)[C@@H](CCC(N)=O)NC(=O)[C@H](N)CSSC[C@H](C(=O)N[C@@H](CC(=O)O)C(=O)NCCCCCCCC(=O)O)NC(=O)[C@@H](CC(C)C)NC(=O)[C@@H](CC(=O)O)NC(=O)[C@H]2CCCN2C(=O)[C@@H](CCCCN)NC(=O)[C@@H](CCC(N)=O)NC(=O)[C@@H](CCCCN)NC(=O)[C@@H](Cc2c[nH]c3ccccc23)NC1=O) | 99 | –
Ac-[Dap]KWIQD-NH2 (lactam 1-6; SMILES CC[C@H](C)[C@@H]1NC(=O)[C@H](Cc2c[nH]c3ccccc23)NC(=O)[C@H](CCCCN)NC(=O)[C@@H](NC(C)=O)CNC(=O)C[C@@H](C(N)=O)NC(=O)[C@H](CCC(N)=O)NC1=O) | 94.8 | –
Ac-LDPCKQKWIQC-NH2 (disulfide 4-11; SMILES CC[C@H](C)[C@@H]1NC(=O)[C@H](Cc2c[nH]c3ccccc23)NC(=O)[C@H](CCCCN)NC(=O)[C@H](CCC(N)=O)NC(=O)[C@H](CCCCN)NC(=O)[C@@H](NC(=O)[C@@H]2CCCN2C(=O)[C@H](CC(=O)O)NC(=O)[C@H](CC(C)C)NC(C)=O)CSSC[C@@H](C(N)=O)NC(=O)[C@H](CCC(N)=O)NC1=O) | 78.9 | –
Isobutyryl-[Dap]KWIQD-NH2 (lactam 1-6; SMILES CC[C@H](C)[C@@H]1NC(=O)[C@H](Cc2c[nH]c3ccccc23)NC(=O)[C@H](CCCCN)NC(=O)[C@@H](NC(=O)C(C)C)CNC(=O)C[C@@H](C(N)=O)NC(=O)[C@H](CCC(N)=O)NC1=O) | 95.9 | –
